Experimental data from US20040086569A1, “Active agent delivery systems, medical devices, and methods” (Medtronic, Inc., priority 2002, published 2004).
Where a name gives a salt, the structure may show the parent alone. At least one structure is not confirmed: it was looked up by name or label, or the drawing left a doubt.

Key:
Assay type in all cases: physicochemical
[1] = Dissolution of dexamethasone from PVAC/CAB blend coated shims in PBS
[2] = Dissolution of dexamethasone from PEcMA/PMMA coated shims in PBS; settings: FIG. 18
[3] = Dissolution of dexamethasone from PEcMA/PS coated shims in PBS; settings: FIG. 17
[4] = Dissolution of dexamethasone from PEcMA/PVM coated shims in PBS; settings: FIG. 16
[5] = Dissolution of dexamethasone from […] 75D/PX blend coated shims in PBS; settings: PELLETHANE 75D/PX matrix, FIG. 5
[6] = Dissolution of dexamethasone from PCU 75D/PC blend coated shims in PBS
[7] = Dissolution of dexamethasone from PCU 75D/PCU 55D blend coated shims in PBS; settings: FIG. 7
[8] = Dissolution of rosiglitazone maleate from PELLETHANE 75D/PX blends in PBS; settings: FIG. 8

C[C@@H]1C[C@H]2[C@@H]3CCC4=CC(=O)C=C[C@]4(C)[C@@]3(F)[C@@H](O)C[C@]2(C)[C@@]1(O)C(=O)CO [dexamethasone]
Diffusion coefficient versus blend composition ([1]; PVAC/CAB blends, FIG. 12): increased as a function of the PVAC content of the blends
Log of the diffusion coefficient versus blend composition ([1]; PVAC/CAB blends, FIG. 12): a linear function of the blend composition
Burst in release curve ([1]; PVAC/CAB matrix, FIG. 11): no burst
Cumulative release versus blend composition ([1]; PVAC/CAB matrix, PBS 37° C., FIG. 11): increased with an increasing amount of PVAC in the blend
Burst in release curve ([2]; PEcMA/PMMA blends): no burst was observed
Release rate from the miscible polymer blend ([2]; blend of PMMA and PEcMA): in between the rates of the unblended polymers
Release rate, unblended polymers compared ([2]; from PEcMA versus PMMA): much faster than from PMMA
Release rate, unblended polymers compared ([3]; Example 8, PEcMA/PS): slower from PVM than from PEcMA
Burst in release curve ([3]; PEcMA/PS blends): no burst was observed
Release rate from the miscible polymer blend ([3]; blend of PS and PEcMA): in between the rates of the unblended polymers
Release rate from the miscible polymer blend ([4]; PEcMA/PVM blend): between that of the unblended polymers
Burst in release curve ([4]; all three matrices): no burst
Release rate, unblended polymers compared ([4]; from PEcMA versus PVM): much faster than that from PVM
Burst in release curve [5]: no burst
Release rate versus blend composition [5]: increased with an increasing amount of PELLETHANE 75D in the blend
Diffusion coefficient versus blend composition ([6]; PCU75D/PC blends, FIG. 4): increased as a function of the PCU75D content of the blends
Log of the diffusion coefficient versus blend composition ([6]; PCU75D/PC blends, FIG. 4): almost a linear function of the blend composition
Burst in release curve ([6]; PCU 75D/PC matrix, FIG. 3): no burst
Cumulative release versus blend composition ([6]; PCU 75D/PC matrix, PBS 37° C., FIG. 3): increased with an increasing amount of PCU in the blend
Release rate versus blend composition ([7]; PCU 75D/PCU 55D blends): increased with an increasing amount of PCU 55D in the blend
Release rate, PCU 75D 100 compared with PCU 75D 70 ([7]; initial linear region of the curves): released faster from PCU 75D 100 than from PCU 75D 70

CN(CCOc1ccc(CC2SC(=O)NC2=O)cc1)c1ccccn1 (stereo not shown) [rosiglitazone maleate]
Release rate versus blend composition [8]: increased with an increasing amount of PELLETHANE 75D in the blend
